Literature values, collected in US6630473B1, “Anti-inflammatory agents and inhibitors against increase in ocular tension caused by irradiation with lasers, containing 1,4-dihydropyridine derivatives” (Senju Pharmaceutical Co., Ltd., priority 1999, dated 2003).
At least one compound was matched to its structure with a doubt left.

What was measured:
[1] = system: prostaglandin E2 (PGE2) induced inflammatory responses in the anterior uveal tissues and rise of intraocular pressure; conditions: systemic administration before administration of PGE2; cited from earlier work
[2] = system: experimental endophthalmitis induced by photocoagulation of iris by the argon laser; conditions: literature report; nicardipine by intravenous administration; cited from earlier work
[3] = system: LPS endophthalmitis induced by systemic administration of endotoxin; conditions: literature report; cited from earlier work

## CCOC(=O)C1=C(C)NC(C)=C(C(=O)OC)C1c1cccc(Cl)c1Cl (stereo not drawn) [felodipine]
[1]
  effect on PGE2-induced inflammatory responses and temporary rise of intraocular pressure: inhibits these responses in a dose-dependent manner
[2]
  effect on experimental endophthalmitis induced by argon laser photocoagulation of iris: inhibitory effect
[3]
  effect on LPS endophthalmitis: inhibitory effect
